Experimental data: paper doi:10.1101/413799
No constants are given. Whether binding was seen depends on the method and setting. For some of these results: In cells and extracts the contact can be indirect. Some entries that bind do so weakly or less than the wild type. Where a sequence is shown, tags or fusion partners need not be part of it.

Key:
[1] = target: T1, Bbp1 fused to the GAL4-binding domain (BD) (budding yeast), Q12365; assay: two-hybrid; conditions: remark: other sources report otherwise
T1 chain: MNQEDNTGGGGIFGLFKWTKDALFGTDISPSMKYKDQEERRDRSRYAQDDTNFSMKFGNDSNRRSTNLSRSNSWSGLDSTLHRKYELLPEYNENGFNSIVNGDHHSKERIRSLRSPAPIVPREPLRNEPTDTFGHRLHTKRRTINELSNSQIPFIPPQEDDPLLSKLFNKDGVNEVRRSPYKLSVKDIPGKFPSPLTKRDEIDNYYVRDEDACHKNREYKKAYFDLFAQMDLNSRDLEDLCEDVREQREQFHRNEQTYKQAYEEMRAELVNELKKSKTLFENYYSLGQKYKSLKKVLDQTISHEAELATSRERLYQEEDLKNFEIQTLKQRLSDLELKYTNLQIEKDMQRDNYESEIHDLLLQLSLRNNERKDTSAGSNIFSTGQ

[2] = target: T2, Mps2 tagged with a fluorescent protein (FRET with Nbp1) (budding yeast) (UniProt P53159); assay: FRET or BRET
T2 sequence: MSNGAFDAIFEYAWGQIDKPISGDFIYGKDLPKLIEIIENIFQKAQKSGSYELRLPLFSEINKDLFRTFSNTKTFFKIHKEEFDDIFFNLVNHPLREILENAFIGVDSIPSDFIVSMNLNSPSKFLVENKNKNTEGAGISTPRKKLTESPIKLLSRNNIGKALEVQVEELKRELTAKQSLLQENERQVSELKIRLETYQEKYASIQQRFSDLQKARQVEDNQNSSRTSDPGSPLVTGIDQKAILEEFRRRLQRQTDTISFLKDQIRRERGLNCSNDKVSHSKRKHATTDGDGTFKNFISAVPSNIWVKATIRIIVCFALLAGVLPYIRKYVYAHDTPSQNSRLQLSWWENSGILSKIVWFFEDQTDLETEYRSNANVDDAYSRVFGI

[3] = target: T3, GFP11-mCherry-Mps2 (budding yeast), P53159; assay: split reporter; conditions: remark: other sources report otherwise
T3 chain: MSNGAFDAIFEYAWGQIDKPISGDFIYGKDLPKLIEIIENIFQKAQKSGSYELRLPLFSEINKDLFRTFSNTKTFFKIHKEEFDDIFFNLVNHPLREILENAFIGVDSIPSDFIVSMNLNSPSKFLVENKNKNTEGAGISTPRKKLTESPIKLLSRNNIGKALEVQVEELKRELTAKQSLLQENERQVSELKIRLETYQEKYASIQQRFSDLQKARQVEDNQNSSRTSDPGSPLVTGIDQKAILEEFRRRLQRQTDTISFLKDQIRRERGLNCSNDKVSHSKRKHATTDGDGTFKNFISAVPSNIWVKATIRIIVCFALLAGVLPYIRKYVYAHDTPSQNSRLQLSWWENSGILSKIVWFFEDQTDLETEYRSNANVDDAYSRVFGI

[4] = target: T4, GFP11-mCherry-Mps2 (budding yeast) (UniProt P53159); assay: split reporter
T4 sequence: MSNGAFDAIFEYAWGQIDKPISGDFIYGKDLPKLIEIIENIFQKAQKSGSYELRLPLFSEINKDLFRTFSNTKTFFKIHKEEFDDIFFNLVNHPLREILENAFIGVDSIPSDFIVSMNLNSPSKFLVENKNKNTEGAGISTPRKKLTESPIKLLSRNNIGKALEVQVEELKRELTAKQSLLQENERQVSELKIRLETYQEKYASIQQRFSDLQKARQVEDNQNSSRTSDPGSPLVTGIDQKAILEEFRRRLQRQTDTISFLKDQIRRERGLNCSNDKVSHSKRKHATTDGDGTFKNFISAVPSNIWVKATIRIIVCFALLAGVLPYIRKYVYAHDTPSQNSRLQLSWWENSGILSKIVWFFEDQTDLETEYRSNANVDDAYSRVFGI

B1: Ndc1 fused to the GAL4-activation domain (AD), P32500 1-655 (protein)
chain: MIQTPRELLNPRYTYHTIFSDVCKTRFNHLVTRLFFICSIIQTVVISLLALPHSPLWELALAFIPNILALNLVSLLIIVTRKNYMHVKNFGFANSLTFILGQLLSVKFLVYQGVYSMGSILLSFVLGVVFGRGGSGWKPYYKLFIWLVVPTIYNLQHHVTDADKLSFNCENFFQAPQDYVLERVKRIMEKSVILSVISMFVLPIFTTVFFSRQKSGLFDSFTNGVLAVTNLLIISCIIFITFEFINIAFDAHMSIGCLHKGKLISNLSSTPMETLLSGLSADKPFTRLTAYQELAYRATSLDPSLRAPIYHSKFRSSSGNTWSLILNECLKTIQINNEKVVQYLRSVQDLGGSATARHKKKVENLDYMYENGKLTSANERLFGNRPSMMAPLRDNGLLDESPNRLRVRTDDSVLLNRGNKKRHRSSYYDNDLDETTQTFNGSIFTHETTFMTAMRLMLKKLKNSIMSFIFPSYAERQSSDESDNYRLLPNGSNKAQISIIDIWSISKKRQAEKLVPLPICHANSVVALTGLLIRSKTEDPKGGIIASVGDILKTLERSICALGEFADWDPESMAYTAFQTQRTAQDRVQQDSEDEDSMKDTTDMISVLYQLSTSAFMEIVLEYNVALNDVYLDADVAKLANWFLEVYASGNPNAT
[1]
  binding: binds

B2: Nbp1 tagged with a fluorescent protein (FRET with Mps2) (protein, UniProt P52919 1-319)
chain: MLKSVQGLWKDFFGIRDDGRKREYGSLDEVRKRSALRSRRKQMRPTGKSVLKRPRKVTDRKTEEKIRTNRRKTPKRRLTKIFQTIRDVFSNDNENMSKMQNVCGDMTRILKKRSQGRPSYMDTDTAKSRILRSDAFKRKISELKYNKQRISELRSGSSDGSSGKDRNQSLYLDREILLQRQIKKRDEKIKALESKLQSLQEALNYSNEKYRILEDLLDSSNIHPSYTKSRRTMSNLARENDEIKPLKIDLSPSPIRRTNSLFTSSPMKTYNRDGNIPEMQPLQENISPACPTPPYRSRETEKEDETLSPISVDFSSYLS
[2]
  binding: binds

B3: Ndc1-GFP_(1-10), P32500 1-655 (protein)
chain: MIQTPRELLNPRYTYHTIFSDVCKTRFNHLVTRLFFICSIIQTVVISLLALPHSPLWELALAFIPNILALNLVSLLIIVTRKNYMHVKNFGFANSLTFILGQLLSVKFLVYQGVYSMGSILLSFVLGVVFGRGGSGWKPYYKLFIWLVVPTIYNLQHHVTDADKLSFNCENFFQAPQDYVLERVKRIMEKSVILSVISMFVLPIFTTVFFSRQKSGLFDSFTNGVLAVTNLLIISCIIFITFEFINIAFDAHMSIGCLHKGKLISNLSSTPMETLLSGLSADKPFTRLTAYQELAYRATSLDPSLRAPIYHSKFRSSSGNTWSLILNECLKTIQINNEKVVQYLRSVQDLGGSATARHKKKVENLDYMYENGKLTSANERLFGNRPSMMAPLRDNGLLDESPNRLRVRTDDSVLLNRGNKKRHRSSYYDNDLDETTQTFNGSIFTHETTFMTAMRLMLKKLKNSIMSFIFPSYAERQSSDESDNYRLLPNGSNKAQISIIDIWSISKKRQAEKLVPLPICHANSVVALTGLLIRSKTEDPKGGIIASVGDILKTLERSICALGEFADWDPESMAYTAFQTQRTAQDRVQQDSEDEDSMKDTTDMISVLYQLSTSAFMEIVLEYNVALNDVYLDADVAKLANWFLEVYASGNPNAT
[3]
  binding: binds

B4: Nbp1-GFP_(1-10) (protein, UniProt P52919 1-319)
chain: MLKSVQGLWKDFFGIRDDGRKREYGSLDEVRKRSALRSRRKQMRPTGKSVLKRPRKVTDRKTEEKIRTNRRKTPKRRLTKIFQTIRDVFSNDNENMSKMQNVCGDMTRILKKRSQGRPSYMDTDTAKSRILRSDAFKRKISELKYNKQRISELRSGSSDGSSGKDRNQSLYLDREILLQRQIKKRDEKIKALESKLQSLQEALNYSNEKYRILEDLLDSSNIHPSYTKSRRTMSNLARENDEIKPLKIDLSPSPIRRTNSLFTSSPMKTYNRDGNIPEMQPLQENISPACPTPPYRSRETEKEDETLSPISVDFSSYLS
[4]
  binding: binds
